Assay results reported in the supplement of paper PMC11006884.
Only a part is listed here, and it is no random draw.

Protein sequences, listed by entry. Tags and fused reporters are not part of them. Lines headed by an entry give the natural chain unless they say otherwise; changes in a name come on top.
UniProt Q9ULW0, whole entry, looked up: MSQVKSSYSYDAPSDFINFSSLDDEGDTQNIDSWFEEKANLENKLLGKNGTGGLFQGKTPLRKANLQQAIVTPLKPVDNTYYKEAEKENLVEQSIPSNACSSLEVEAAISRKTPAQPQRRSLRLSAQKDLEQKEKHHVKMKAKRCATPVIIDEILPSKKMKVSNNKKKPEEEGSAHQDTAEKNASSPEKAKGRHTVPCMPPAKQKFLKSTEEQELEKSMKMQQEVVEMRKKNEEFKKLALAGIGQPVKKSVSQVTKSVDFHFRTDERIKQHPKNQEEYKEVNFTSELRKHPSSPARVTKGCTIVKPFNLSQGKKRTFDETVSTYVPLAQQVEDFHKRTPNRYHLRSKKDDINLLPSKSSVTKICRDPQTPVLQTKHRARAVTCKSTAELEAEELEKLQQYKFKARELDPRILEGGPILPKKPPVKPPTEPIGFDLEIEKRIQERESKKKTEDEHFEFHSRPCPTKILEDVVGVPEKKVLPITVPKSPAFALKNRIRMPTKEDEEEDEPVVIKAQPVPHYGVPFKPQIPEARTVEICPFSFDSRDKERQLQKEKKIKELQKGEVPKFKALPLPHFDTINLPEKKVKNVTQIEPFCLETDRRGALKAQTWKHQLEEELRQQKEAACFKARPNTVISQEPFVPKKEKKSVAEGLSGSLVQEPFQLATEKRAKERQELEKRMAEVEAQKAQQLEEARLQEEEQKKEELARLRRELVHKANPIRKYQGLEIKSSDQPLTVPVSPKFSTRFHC
UniProt Q9ULX3: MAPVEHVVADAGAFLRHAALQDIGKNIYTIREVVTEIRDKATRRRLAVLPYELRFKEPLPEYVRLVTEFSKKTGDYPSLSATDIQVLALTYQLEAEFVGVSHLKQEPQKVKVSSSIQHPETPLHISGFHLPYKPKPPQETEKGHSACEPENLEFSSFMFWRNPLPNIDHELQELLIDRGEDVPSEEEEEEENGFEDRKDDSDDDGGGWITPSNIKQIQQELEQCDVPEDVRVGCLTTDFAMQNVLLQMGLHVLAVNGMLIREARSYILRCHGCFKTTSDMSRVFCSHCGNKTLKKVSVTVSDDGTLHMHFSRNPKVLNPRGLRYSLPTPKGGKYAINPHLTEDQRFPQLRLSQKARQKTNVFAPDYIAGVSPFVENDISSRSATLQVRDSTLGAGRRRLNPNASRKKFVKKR
UniProt Q9Y3C1: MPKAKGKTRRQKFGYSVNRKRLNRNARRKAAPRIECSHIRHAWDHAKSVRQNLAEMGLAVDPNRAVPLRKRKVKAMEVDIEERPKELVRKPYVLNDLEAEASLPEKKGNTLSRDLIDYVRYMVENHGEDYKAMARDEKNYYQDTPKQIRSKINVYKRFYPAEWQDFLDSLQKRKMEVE
UniProt Q9Y3Z3: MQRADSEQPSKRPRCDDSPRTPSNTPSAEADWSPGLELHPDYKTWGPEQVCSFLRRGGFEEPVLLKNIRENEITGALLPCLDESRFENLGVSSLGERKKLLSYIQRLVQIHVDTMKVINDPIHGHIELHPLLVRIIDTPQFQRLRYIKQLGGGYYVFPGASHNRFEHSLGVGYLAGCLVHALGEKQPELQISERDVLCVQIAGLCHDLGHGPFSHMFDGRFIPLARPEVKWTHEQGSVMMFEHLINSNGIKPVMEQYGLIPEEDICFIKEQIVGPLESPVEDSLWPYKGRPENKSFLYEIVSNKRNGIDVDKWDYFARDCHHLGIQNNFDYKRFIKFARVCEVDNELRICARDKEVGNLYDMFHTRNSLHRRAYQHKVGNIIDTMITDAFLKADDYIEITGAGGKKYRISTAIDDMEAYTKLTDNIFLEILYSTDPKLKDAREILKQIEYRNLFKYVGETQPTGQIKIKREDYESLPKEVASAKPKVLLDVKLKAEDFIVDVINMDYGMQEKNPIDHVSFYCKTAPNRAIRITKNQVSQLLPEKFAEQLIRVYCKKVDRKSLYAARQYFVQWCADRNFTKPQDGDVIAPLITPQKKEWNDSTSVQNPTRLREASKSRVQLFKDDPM
UniProt Q9Y3P9: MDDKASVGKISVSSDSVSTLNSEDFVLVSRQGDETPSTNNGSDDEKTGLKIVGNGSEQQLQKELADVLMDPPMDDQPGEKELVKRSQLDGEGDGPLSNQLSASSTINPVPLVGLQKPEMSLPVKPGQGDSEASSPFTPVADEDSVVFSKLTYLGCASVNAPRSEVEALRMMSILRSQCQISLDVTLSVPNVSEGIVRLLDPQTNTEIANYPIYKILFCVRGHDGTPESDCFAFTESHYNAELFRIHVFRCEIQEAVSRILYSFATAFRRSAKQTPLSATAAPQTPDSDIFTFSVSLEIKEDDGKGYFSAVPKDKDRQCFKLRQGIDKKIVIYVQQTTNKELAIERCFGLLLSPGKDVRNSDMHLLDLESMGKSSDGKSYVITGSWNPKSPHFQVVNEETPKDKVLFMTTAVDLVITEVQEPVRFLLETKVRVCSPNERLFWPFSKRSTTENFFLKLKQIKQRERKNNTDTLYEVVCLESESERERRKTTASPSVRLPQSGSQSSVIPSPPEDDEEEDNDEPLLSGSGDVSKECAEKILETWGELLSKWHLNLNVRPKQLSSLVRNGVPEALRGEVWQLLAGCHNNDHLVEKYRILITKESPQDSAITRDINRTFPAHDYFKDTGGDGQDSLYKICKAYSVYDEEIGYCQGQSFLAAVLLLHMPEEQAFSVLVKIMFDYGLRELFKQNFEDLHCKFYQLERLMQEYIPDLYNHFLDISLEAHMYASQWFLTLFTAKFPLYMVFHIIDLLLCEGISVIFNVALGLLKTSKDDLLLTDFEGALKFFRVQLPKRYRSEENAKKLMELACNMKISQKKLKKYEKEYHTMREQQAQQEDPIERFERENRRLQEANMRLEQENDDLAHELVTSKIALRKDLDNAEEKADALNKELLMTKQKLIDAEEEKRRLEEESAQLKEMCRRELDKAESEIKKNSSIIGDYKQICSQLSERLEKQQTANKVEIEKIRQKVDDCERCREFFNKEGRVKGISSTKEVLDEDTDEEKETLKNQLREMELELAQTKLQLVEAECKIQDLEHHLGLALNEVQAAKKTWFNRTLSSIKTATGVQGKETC
UniProt Q9UK45: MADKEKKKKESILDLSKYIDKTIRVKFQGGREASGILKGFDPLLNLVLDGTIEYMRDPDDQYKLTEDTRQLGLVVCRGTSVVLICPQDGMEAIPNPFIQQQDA
UniProt Q9UKD1: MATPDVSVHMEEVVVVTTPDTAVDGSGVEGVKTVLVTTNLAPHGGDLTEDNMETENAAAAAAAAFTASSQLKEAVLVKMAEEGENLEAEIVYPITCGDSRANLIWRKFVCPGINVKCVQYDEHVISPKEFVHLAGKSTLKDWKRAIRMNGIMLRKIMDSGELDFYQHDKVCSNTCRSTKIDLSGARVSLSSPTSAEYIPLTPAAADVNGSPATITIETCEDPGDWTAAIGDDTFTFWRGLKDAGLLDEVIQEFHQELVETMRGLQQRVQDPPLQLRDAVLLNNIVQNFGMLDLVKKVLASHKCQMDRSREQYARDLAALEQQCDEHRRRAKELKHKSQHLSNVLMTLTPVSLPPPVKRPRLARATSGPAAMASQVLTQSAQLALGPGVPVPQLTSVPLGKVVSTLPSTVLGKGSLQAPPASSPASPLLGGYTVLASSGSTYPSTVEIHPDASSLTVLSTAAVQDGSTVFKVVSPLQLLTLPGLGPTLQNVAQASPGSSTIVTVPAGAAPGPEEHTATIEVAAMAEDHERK
UniProt Q9ULU4: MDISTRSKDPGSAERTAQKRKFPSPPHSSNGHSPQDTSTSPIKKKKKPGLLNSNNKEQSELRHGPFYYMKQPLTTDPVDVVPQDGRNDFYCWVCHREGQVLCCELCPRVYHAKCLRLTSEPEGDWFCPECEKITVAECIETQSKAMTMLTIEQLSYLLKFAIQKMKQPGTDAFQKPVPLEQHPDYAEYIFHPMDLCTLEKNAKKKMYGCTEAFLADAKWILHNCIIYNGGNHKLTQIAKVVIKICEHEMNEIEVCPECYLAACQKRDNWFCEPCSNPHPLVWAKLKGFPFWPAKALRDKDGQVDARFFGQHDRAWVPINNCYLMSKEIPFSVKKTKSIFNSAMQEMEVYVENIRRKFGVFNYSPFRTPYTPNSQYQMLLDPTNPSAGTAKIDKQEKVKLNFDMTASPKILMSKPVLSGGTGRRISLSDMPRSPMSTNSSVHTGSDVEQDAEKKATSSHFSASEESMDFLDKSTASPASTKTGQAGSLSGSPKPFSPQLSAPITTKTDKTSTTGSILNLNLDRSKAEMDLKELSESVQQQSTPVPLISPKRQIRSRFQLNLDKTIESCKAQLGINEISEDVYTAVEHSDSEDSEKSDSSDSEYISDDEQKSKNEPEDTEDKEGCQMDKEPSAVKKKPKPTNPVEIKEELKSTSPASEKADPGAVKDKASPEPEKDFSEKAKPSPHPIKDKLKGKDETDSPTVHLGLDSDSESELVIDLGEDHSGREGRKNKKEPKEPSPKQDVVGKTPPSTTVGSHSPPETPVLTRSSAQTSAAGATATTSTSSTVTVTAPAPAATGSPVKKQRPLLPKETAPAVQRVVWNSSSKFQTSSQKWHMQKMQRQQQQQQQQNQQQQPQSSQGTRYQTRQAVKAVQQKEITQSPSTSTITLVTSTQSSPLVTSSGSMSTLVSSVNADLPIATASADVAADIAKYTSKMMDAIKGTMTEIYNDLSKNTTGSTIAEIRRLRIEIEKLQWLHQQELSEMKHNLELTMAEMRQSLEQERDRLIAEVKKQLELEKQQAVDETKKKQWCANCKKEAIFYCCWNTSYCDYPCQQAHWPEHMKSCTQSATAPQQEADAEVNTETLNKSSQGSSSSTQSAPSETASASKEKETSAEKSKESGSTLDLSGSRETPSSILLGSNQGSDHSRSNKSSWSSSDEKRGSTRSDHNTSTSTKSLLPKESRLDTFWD
UniProt Q9UIV1, whole entry: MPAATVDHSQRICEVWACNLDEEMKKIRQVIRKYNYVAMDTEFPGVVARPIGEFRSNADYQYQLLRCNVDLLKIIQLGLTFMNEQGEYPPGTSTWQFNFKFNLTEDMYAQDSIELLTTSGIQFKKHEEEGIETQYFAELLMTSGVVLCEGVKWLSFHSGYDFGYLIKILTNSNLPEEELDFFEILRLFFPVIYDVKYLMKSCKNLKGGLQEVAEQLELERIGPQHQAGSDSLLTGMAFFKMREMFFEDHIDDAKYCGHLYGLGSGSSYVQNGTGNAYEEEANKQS
UniProt Q9UHI6: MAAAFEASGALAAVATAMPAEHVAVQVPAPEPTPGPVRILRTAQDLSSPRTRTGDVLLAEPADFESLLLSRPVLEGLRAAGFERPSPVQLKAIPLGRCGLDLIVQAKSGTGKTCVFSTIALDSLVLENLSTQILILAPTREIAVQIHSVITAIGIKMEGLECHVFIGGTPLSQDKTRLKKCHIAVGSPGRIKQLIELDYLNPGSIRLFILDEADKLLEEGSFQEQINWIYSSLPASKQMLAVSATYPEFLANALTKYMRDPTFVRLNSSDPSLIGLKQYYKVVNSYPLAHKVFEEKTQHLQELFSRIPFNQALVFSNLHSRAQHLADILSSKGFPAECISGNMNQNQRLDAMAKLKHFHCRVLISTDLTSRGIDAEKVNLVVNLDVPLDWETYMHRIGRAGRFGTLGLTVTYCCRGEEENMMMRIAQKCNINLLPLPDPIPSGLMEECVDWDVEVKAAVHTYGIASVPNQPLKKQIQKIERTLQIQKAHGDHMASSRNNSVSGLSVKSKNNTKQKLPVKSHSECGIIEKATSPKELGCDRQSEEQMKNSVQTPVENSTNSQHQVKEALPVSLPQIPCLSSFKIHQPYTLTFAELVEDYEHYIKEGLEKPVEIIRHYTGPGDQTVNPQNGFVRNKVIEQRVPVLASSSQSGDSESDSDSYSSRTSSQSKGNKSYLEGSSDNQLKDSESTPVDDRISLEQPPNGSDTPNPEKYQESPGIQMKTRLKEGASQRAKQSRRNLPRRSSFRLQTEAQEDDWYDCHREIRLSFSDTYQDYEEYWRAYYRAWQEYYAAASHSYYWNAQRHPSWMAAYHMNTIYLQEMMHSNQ
UniProt Q9Y3I0: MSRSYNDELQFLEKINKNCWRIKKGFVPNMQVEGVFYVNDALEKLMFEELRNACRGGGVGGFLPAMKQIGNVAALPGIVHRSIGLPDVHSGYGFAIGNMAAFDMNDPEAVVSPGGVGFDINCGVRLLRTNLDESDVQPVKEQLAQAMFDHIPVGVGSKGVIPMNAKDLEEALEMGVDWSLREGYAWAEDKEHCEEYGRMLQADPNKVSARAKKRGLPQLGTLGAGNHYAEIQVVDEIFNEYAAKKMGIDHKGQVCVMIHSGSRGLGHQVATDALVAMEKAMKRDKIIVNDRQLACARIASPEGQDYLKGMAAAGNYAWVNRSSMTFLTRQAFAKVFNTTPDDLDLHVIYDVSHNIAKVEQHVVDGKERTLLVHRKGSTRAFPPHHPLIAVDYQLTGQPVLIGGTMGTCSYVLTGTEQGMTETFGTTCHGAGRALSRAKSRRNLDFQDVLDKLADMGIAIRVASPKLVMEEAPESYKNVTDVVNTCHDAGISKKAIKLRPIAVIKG

Compound: COC(=O)C#Cc1ccccc1 [methyl 3-phenylpropiolate]
Test: log2 ratio of iodoacetamide-alkyne labeling of the cysteine site, DMSO over compound (competition); higher = stronger covalent engagement of the cysteine by the compound, active = 1 or more
Details: 500 µM; treatment time 1 h; system: HEK293T cell lysate
Outline: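 Three replicates, each with duplicate channels, were prepared from HEK293T lysate (2 mg/mL) treated with vehicle or electrophile at 500 µM for 1 h at ambient temperature. Iodoacetamide alkyne was then applied for 1 h, and samples were clicked to sCIP-TMT reagents, pooled, trypsin-digested overnight at 37 °C, enriched on streptavidin, acid-eluted and analysed on Orbitrap Eclipse LC-MS/MS with FAIMS, with FragPipe quantification. The log2 competition ratio per cysteine is the mean control-channel divided by the mean compound-channel reporter intensity. Cysteines quantified in only one replicate were left out.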

Target	log2 ratio of iodoacetamide-alkyne labeling
TPX2 C301 (UniProt Q9ULW0)	inactive: 0.858
MYO6 C691 (UniProt Q9UM54)	inactive: -0.347
GIT1 C576 (UniProt Q9Y2X7)	inactive: 0.845
NOB1 C147 (UniProt Q9ULX3)	inactive: 0.252
NOP16 C36 (UniProt Q9Y3C1)	active: 1.12
SAMHD1 C341 (UniProt Q9Y3Z3)	inactive: 0.323
RABGAP1 C476 (UniProt Q9Y3P9)	inactive: 0.117
INTS6 C219 (UniProt Q9UL03)	inactive: 0.124
USP24 C172 (UniProt Q9UPU5)	inactive: 0.54
SRRM2 C2130 (UniProt Q9UQ35)	inactive: 0.654
NUFIP1 C317 (UniProt Q9UHK0)	inactive: 0.46
INTS6 C783 (UniProt Q9UL03)	inactive: 0.438
MAGED2 C516 (UniProt Q9UNF1)	inactive: 0.293
BAZ1B C994 (UniProt Q9UIG0)	inactive: 0.236
TPX2 C145 (UniProt Q9ULW0)	inactive: 0.384
BAZ2A C943 (UniProt Q9UIF9)	inactive: -0.0243
UniProt Q9UIF8_C1223	inactive: 0.408
MRPS16 C26 (UniProt Q9Y3D3)	inactive: 0.271
RWDD3 C17 (UniProt Q9Y3V2)	inactive: -0.322

Given as a markdown table: entries from further up

| Target | log2 ratio of iodoacetamide-alkyne labeling |
| --- | --- |
| TPX2 C301 (UniProt Q9ULW0) | inactive: 0.858 |
| MYO6 C691 (UniProt Q9UM54) | inactive: -0.347 |
| GIT1 C576 (UniProt Q9Y2X7) | inactive: 0.845 |
| NOB1 C147 (UniProt Q9ULX3) | inactive: 0.252 |
| NOP16 C36 (UniProt Q9Y3C1) | active: 1.12 |
| SAMHD1 C341 (UniProt Q9Y3Z3) | inactive: 0.323 |
| RABGAP1 C476 (UniProt Q9Y3P9) | inactive: 0.117 |
| USP24 C172 (UniProt Q9UPU5) | inactive: 0.54 |
| NUFIP1 C317 (UniProt Q9UHK0) | inactive: 0.46 |
| TPX2 C145 (UniProt Q9ULW0) | inactive: 0.384 |
| MRPS16 C26 (UniProt Q9Y3D3) | inactive: 0.271 |

(list continues)

Target	log2 ratio of iodoacetamide-alkyne labeling
LSM7 C76 (UniProt Q9UK45)	inactive: 0.0557
TDRKH C109 (UniProt Q9Y2W6)	inactive: 0.355
GMEB2 C323 (UniProt Q9UKD1)	inactive: 0.274
MBD1 C525 (UniProt Q9UIS9)	inactive: 0.358
ZMYND8 C1062 (UniProt Q9ULU4)	inactive: 0.248
UniProt Q9UHJ3_C142	inactive: 0.274
CNOT7 C18 (UniProt Q9UIV1)	inactive: 0.331
DDX20 C577 (UniProt Q9UHI6)	inactive: 0.339
UniProt Q9Y3U8_C48	inactive: 0.297
LUC7L2 C36 (UniProt Q9Y383)	inactive: 0.0766
MACF1 C5049 (UniProt Q9UPN3)	inactive: 0.311
DIS3 C194 (UniProt Q9Y2L1)	inactive: 0.154
GTF3C4 C713 (UniProt Q9UKN8)	inactive: 0.141
NCKAP1 C599 (UniProt Q9Y2A7)	inactive: -0.0856
MED13 C402 (UniProt Q9UHV7)	inactive: 0.619
VPS51 C254 (UniProt Q9UID3)	inactive: 0.563
UniProt Q9Y3I0_C122	inactive: 0.138
NUP50 C416 (UniProt Q9UKX7)	inactive: 0.0524
